Not every detail of the peptide structures is certain; ends, links or a residue may be inferred. *1 amine or outer side, *2 acyl side, *3 side chain or, on linkers, in order; H or OH if unused. Where a SMILES comes first, the peptide text is derived from it. [ ]: non-standard residue; d: D form. X1 = O=C(c1cc2c(c([N+](=O)[O-])c1)N([*:1])CC2)[*:2]; Hyp = O=C(O)[C@@H]1C[C@@H](O)CN1
Experiments:
[1] = Photolysis of an aqueous solution at 350 nm, mass spectrometric analysis; format: physicochemical; conditions: 5 min, room temperature, water pH 7.3, 0.29 mM
[2] = format: physicochemical; conditions: 20° C. to 70° C. in 10° C. steps; 20 μM, pH 6.8
Protocol: Circular Dichroism (CD) of peptide 1 and thermal stability measurements. Far-UV CD studies were conducted to study the secondary structure of peptide 1. The measurements were carried out using a 20 μM solution of the lyophilized peptide 1 in 15 mM NaCl and 10 mM Na/K buffer (pH 6.8). The sample was placed into a quartz cuvette of 1 mm path length (Jasco) and heated from 20° C.-70° C. to characterize its thermal stability. At each temperature, the sample was equilibrated for 4 min prior measurement of the spectrum. CD scans were performed at a range from 196-240 nm with three accumulations of data at each temperature to improve the S/N ratio. Each spectrum underwent 11 point Savitzky-Golay smoothing to minimize high frequency noise. The experimentally estimated ellipticities (Gobs) were converted to mean molar ellipticity [θ] using the formula: [θ]=(θobs)/ncl where l is the path length of the cuvette; c is the concentration of the peptide, and n is the number of […] in the peptide.

[3] = tested on: human mesenchymal stem cells; format: cell-based; conditions: human MSC on immobilized peptide, 24 hours
Source text: Culture and passaging of human Mesenchymal Stem Cells (MSC). Human adipose derived mesenchymal stem cells were obtained from Lonza at passage=3 (Lonza, Allendale, N.J., USA) and cultured according to manufacturer's recommendations. Certification was obtained and kept in file to ensure that the purchased human MSC (Lonza) was verified to be of the correct lineage and uncontaminated by other cell types or organisms. For the human MSC culture, a complete growth medium (Lonza) specifically MSCGM human Mesenchymal Stem Cell (HMSC) growth BulletKit™ Medium (Lonza) was used for maintaining the mesenchymal stem cells in an undifferentiated state. This medium is referred to as complete growth medium for HMSC here onwards. Prior to cell seeding, T-75 culture flasks were coated with 0.1% gelatin (Sigma Aldrich, St. Louis, Mo., USA) and incubated (37° C., 1 h). After this, the cell suspension in complete culture medium was transferred to a gelatin coated T-75 flask and incubated for 1 h (37° C., 5% CO2 and 95% RH). Prior to cell culture, the gelatin solution used for coating of the flasks was aspirated. After 70% confluency in culture was attained, cells were trypsizined and passaged for further experiments. […] Following this, cells were seeded atop this layer and cultured for 24 hours after which they were imaged using fluorescence microscopy (Zeiss Axiovision).

SMILES: NC(=O)CNC(=O)[C@@H]1CCCN1C(=O)[C@@H]1C[C@@H](O)CN1C(=O)CNC(=O)[C@@H]1CCCN1C(=O)[C@@H]1CCCN1C(=O)c1cc2c(c([N+](=O)[O-])c1)N(C(=O)CNC(=O)[C@@H]1CCCN1C(=O)[C@@H]1C[C@@H](O)CN1C(=O)CNC(=O)[C@@H]1CCCN1C(=O)[C@@H]1CCCN1C(=O)c1cc3c(c([N+](=O)[O-])c1)N(C(=O)CNC(=O)[C@@H]1CCCN1C(=O)[C@@H]1C[C@@H](O)CN1C(=O)CNC(=O)[C@@H]1CCCN1C(=O)[C@@H]1CCCN1C(=O)c1cc4c(c([N+](=O)[O-])c1)N(C(=O)CNC(=O)[C@@H]1CCCN1C(=O)[C@@H]1C[C@@H](O)CN1C(=O)CNC(=O)[C@@H]1CCCN1C(=O)[C@@H]1CCCN1C(=O)c1cc5c(c([N+](=O)[O-])c1)N(C(=O)CNC(=O)[C@@H]1CCCN1C(=O)[C@@H]1C[C@@H](O)CN1C(=O)CNC(=O)[C@@H]1CCCN1C(=O)[C@@H]1CCCN1)CC5)CC4)CC3)CC2 [peptide 1] (H-PPG[Hyp]PG[X1]PPG[Hyp]PG[X1]PPG[Hyp]PG[X1]PPG[Hyp]PG[X1]PPG[Hyp]PG-NH2)
- consumption of starting material on irradiation (photolysis) [1]: completely consumed
- loss of secondary (triple helix) structure with temperature, far-UV CD [2]: practically no loss of structure
- cell adhesion and migration [3]: promoted cell adhesion and migration
